Experimental data: patent US20230072949A1, “NANOMATERIALS FOR TARGETED TREATMENT AND IMAGING OF ANEURYSMAL MICROENVIRONMENT” (The University of North Carolina at Chapel Hill, priority 2020, published 2023)
Part of at least one peptide drawing is inferred or uncertain, most often the ends. Where a SMILES comes first, the peptide text is derived from it. The star is where a group is joined. Palmitoyl = CCCCCCCCCCCCCCCC(=O)*

System: aneurysmal aorta (CaCl2-induced AAA of the infrarenal aorta)
Assay: Targeting of PA nanomaterials to aneurysmal tissue in CaCl2-induced AAA rats (LSFM / fluorescence microscopy after intravenous injection)
Type: in vivo, Sprague Dawley rats
Conditions: for amount of PA positive tissue: 2 hr after systemic injection (FIG. 3B); for localization of PA to aneurysmal tissue / areas of the aorta with high MMP-2: 35 days after AAA induction, systemic injection
From the text: We also validated the CaCl2 model, by inducing aneurysms in 10 male and 7 female Sprague Dawley rats. We measured aortic diameter before AAA induction and then at days 14, 21, and 28 after induction using ultrasound. At day 35, we performed an endpoint surgery and measured the diameter of the aorta, perfusion-fixed the rats, and collected tissue. Tissue was cryo-sectioned and assayed for elastin (Verhoeff-Van Gieson (VVG)), calcium (Von Kossa), and MMP-2 (IF) staining. […] There was no significant difference between male and female rats in aortic dilation (data not shown). Further, we found both elastin fragmentation, and robust MMP-2 protein staining in the aortas exposed to CaCl2, with negligible amounts of fragmentation and MMP-2 in the suprarenal aortas from the same animals (FIG. 2 C+F). Fragmentation of elastin and MMP-2 corresponded to regions of the aorta that were calcified (FIG. 2E).
To evaluate the targeting specificity of the targeted PA nanomaterials, we induced AAA in the infrarenal aorta of Sprague Dawley rats by exposure to CaCl2. After 35 days, a period consistent with aneurysm formation, the targeted PA nanomaterials was injected intravenously. We assessed targeting specificity and duration to aneurysmal sites as well as to all vital organs. We also determined optimal concentration, dose, and co-assembly ratios. Controls included rats injected with saline alone, non-targeted PA nanomaterials, and PA nanomaterials bearing a scrambled targeting sequence.
Experimental Design. Dosage and targeting specificity. To evaluate specific localization of targeted PA nanomaterials, AAA is induced in the infrarenal aorta of male and female Sprague Dawley rats by exposure to CaCl2) (FIG. 4 and FIG. 5A). The features of human AAA can be recapitulated in rodent models. Here, we developed and validated a surgical model of AAA, where CaCl2 is applied to the periadventitial surface of the aorta.^4, 18 While no single model perfectly replicates human AAA, similarities between CaCl2-induced AAA and human aneurysms makes this a useful model. For instance, both human and CaCl2) induced AAA led to fragmentation of medial elastin and increased MMP-2 levels.^6, 19-21
Aortic dilation is measured using ultrasound imaging. At day 35 after CaCl2) exposure, a time point we have established produced significant aortic dilation (FIGS. 2A and 2B), increased levels of MMP-2 (FIG. 2C), and elastin fragmentation (FIG. 2E), rats received one of 12 treatments via intravenous tail vein injection (n=8 rats, 4 males and 4 females, per treatment group). For the elastin-targeting PA: 1) 5 mg of 25 mole %, 2) 5 mg of 50 mole %, and 3) 5 mg of 95 mole %, for the MT1-MMP-targeting PA: 4) 5 mg of 25 mole %, 5) 5 mg of 50 mole %, and 6) 5 mg of 95 mole %, for the MMP-2-targeting PA 1 25 mole % doses of 7) 2.5 mg, 8) 5 mg, and 9) 10 mg, and the following controls: 10) 5 mg of altered hydrogen bonding MMP-2-control PA 25 mole %, 11) 5 mg of scrambled MMP-2-control PA 25 mole %, and 12) saline. Rats are euthanized 2 hours post PA injection using inhaled isoflurane anesthesia followed by thoracotomy.
Targeting specificity of both MMP-2-targeting and elastin-targeting PAs to the aneurysmal aorta, non-aneurysmal suprarenal aorta, and all vital organs is assessed using in vivo imaging system (IVIS), light-sheet fluorescence microscopy (LSFM), and immunofluorescence (IF) microscopy. […] Targeting specificity was determined by measuring pixel count above an assigned threshold. Further, MMP-2 was quantified using IF microscopy and correlated to the amount of MMP-2-targeting PA. When no adverse side effects occurred, the dosage was increased until we achieved saturation of targeting. With this experiment, we confirmed that targeted PA nanomaterials localized to the site of interest and optimal dose for duration studies was determined. Results are shown for 2 hours post PA injection of either 2.5 mg, 5 mg, or 10 mg of MMP-2-targeting PA 1. […]

[1] = 2 hours post PA injection (FIG. 9)

## CCCCCCCCCCCCCCCC(=O)N[C@H](C(=O)N[C@H](C(=O)N[C@@H](C)C(=O)N[C@@H](C)C(=O)N[C@@H](CCC(=O)O)C(=O)N[C@@H](CCC(=O)O)C(=O)NCC(=O)NCC(=O)N[C@@H](CCCNC(=N)N)C(=O)NCC(=O)N[C@@H](C)C(=O)N[C@@H](C)C(=O)N1CCC[C@H]1C(=O)N1CCC[C@H]1C(=O)N[C@@H](CCCCN)C(=O)N[C@@H](CCC(N)=O)C(=O)N[C@@H](CCC(=O)O)C(=O)N[C@@H](Cc1ccccc1)C(=O)N[C@@H](CC(C)C)C(=O)N[C@@H](CC(=O)O)C(=O)N[C@H](C(=O)N[C@@H](CCC(=O)O)C(=O)O)[C@@H](C)CC)C(C)C)C(C)C [MMP-2_RGA] (Palmitoyl-VVAAEEGGRGAAPPKQEFLDIE-OH; N-terminus and C-terminus assumed)
1 mg dose
  amount of PA positive tissue: lower amount
2.5 mg and 5 mg dose
  amount of PA positive tissue: high amount
5 mg, 2 hours post PA injection (FIG. 12)
  localization in male and female rats: differential localization
2 hours post PA injection (FIG. 8A)
  targeting to the rat aorta (LSFM images): targeting to the rat aorta
[1]
  PA to tissue volume ratio, 5 mg compared with 10 mg dose: similar
  PA volume to tissue volume ratio, 5 mg and 10 mg dose compared with 2.5 mg dose: higher
  dose at which binding is likely saturated: 5 mg
Preliminary data (FIG. 3), listed as MMP-2-targeted PA nanomaterial
  localization of PA to aneurysmal tissue / areas of the aorta with high MMP-2: localizes to sites of aneurysm formation in a dose dependent manner
Preliminary data (FIG. 3), listed as MMP-2-targeting PA
  localization of PA to aneurysmal tissue / areas of the aorta with high MMP-2: localization to areas of the aorta that have high levels of MMP-2
Preliminary data (FIG. 3), listed as MMP-2_RGA PA
  localization of PA to aneurysmal tissue / areas of the aorta with high MMP-2: localization
Table 1, aneurysm targeting
  Targeting Capability: Targets aneurysm
Preliminary data (FIG. 3)
  localization to non-aneurysmal suprarenal aorta: not to non-aneurysmal suprarenal aorta
